The target in data set [1] is T1, endogenous USP in Sf9 nuclear extract (Spodoptera frugiperda) (UniProt K7WYJ0).
T1 sequence (looked up, limits assumed): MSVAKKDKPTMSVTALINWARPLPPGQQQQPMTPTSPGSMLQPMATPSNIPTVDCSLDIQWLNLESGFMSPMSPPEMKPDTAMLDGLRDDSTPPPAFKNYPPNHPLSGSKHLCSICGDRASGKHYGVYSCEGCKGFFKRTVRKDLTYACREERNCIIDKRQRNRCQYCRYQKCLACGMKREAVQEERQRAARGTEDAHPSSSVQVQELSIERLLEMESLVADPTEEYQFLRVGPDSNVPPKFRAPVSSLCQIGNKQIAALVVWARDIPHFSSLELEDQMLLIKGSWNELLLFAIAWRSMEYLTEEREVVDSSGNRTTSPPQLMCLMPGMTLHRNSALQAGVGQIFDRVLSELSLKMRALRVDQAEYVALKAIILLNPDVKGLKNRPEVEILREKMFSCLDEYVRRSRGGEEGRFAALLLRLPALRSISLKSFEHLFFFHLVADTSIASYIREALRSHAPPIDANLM
The data set can be described thus: activity in cells. The conditions noted are these: protein in an extract, only the site is given; for activity on this sequence (fold induction): Sf9 luciferase reporter, 75 uM methyl epoxyfarnesoate, endogenous receptor. Background: In a reporter assay the amount or activity of a reporter protein is the signal.

Data set [2] deals with T1, endogenous USP in Sf9 nuclear extract (Spodoptera frugiperda). The experiment in a line: competition with a labelled probe. Particulars: protein in an extract.

For some assays here: Where cells or extracts were used, other partners may take part. Negatives hold for the conditions tested. Where a protein sequence is shown, tags need not be part of it. For at least one entry, the source does not settle the construct or the ends of the probe.

Consider “CAAGACATAGAGGCCAAAGAAGACATG (double strand) [mutDR12]”, for which the “activity on this sequence” value in data set [1] (1DR12mutCore response no greater than core promoter background, variant of DR12) is “not active”. In addition, in data set [2] (100x unlabelled mutDR12 does not compete, variant of DR12), the binding result is on record as “no binding”.
Regarding CAAGGTCAAAGGTCAG (double strand) [4DR1], the activity on this sequence (fold induction) in data set [1] amounted to 2.5.
“GGTACCGAGCTCTTACGCGTGCTAGCCCGGGCTCGA (double strand) [pGL3 polylinker (nonself)]”: the binding result in data set [2] (100x nonself does not compete) is on record as “no binding”.
For the sequence “CAAGGTCAAGAAAGGTCAG (double strand) [4DR4]”, the activity on this sequence (fold induction) in data set [1] worked out at 3.5.
